The source of these data is article doi:10.1101/220111.

The chains behind the UniProt entries cited, without tags or fusion partners.
UniProt E9P860: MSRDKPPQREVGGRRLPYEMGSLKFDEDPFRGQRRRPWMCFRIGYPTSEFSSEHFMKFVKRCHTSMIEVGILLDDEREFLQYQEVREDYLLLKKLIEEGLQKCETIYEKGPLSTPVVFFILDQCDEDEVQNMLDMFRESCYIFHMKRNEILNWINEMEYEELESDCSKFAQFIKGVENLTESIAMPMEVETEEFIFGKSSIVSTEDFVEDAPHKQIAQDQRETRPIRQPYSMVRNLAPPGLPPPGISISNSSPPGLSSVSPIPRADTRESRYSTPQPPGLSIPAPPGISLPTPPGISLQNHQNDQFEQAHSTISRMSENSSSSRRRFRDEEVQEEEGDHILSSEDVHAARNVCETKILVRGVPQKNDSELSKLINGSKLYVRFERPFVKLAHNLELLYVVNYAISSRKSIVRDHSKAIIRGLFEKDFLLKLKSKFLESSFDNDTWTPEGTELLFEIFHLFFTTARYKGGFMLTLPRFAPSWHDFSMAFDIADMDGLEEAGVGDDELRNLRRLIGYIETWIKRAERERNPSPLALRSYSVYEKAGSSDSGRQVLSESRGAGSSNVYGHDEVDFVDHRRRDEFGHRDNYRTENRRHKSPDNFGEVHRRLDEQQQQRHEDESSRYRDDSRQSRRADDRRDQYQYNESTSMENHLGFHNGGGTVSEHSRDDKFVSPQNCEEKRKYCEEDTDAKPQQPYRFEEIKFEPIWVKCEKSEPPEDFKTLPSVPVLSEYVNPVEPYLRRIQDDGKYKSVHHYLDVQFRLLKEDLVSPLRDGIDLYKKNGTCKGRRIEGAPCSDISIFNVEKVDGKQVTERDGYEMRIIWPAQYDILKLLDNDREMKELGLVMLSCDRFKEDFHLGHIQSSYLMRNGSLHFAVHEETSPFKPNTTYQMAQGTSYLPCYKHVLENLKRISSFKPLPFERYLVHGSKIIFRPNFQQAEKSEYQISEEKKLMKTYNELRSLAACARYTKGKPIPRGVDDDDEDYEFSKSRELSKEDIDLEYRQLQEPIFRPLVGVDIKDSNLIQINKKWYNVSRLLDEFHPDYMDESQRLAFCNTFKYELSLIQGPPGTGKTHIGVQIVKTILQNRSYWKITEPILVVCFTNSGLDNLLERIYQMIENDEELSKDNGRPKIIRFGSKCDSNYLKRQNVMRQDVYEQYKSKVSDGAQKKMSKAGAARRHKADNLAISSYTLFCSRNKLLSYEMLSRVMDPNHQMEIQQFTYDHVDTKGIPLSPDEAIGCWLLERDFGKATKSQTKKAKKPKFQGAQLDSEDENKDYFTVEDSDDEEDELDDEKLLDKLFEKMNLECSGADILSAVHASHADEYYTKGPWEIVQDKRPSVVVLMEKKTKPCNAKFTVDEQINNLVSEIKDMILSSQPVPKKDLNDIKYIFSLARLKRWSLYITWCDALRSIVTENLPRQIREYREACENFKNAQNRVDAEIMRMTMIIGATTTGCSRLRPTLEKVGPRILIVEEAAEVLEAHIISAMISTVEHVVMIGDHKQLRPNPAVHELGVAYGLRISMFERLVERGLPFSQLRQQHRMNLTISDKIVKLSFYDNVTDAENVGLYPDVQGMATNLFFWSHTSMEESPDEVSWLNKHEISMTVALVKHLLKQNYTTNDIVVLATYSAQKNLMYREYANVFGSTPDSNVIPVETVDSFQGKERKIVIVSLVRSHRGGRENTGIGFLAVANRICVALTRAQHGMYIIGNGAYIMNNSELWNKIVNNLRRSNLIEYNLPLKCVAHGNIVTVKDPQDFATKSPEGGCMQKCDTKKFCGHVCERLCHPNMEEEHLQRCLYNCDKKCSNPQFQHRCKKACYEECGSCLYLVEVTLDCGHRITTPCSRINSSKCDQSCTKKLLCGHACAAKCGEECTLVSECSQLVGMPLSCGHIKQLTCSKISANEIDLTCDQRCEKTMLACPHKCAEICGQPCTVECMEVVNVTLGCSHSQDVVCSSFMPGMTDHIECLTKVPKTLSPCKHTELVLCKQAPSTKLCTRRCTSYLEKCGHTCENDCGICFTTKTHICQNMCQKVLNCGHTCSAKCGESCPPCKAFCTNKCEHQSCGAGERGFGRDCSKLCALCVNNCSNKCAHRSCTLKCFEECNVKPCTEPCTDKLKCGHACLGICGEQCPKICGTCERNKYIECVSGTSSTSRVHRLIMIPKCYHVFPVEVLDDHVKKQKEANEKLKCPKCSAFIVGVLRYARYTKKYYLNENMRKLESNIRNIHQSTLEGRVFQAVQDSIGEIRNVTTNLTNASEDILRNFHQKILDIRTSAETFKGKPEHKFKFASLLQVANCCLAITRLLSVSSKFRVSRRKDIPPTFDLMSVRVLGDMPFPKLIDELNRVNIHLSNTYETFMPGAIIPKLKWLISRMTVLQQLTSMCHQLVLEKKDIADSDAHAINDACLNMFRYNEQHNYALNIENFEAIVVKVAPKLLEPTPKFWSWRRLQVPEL

For the test, the target named is T1, 3xFLAG∷WAGO-4 (C. elegans) (UniProt O62275).
T1 sequence: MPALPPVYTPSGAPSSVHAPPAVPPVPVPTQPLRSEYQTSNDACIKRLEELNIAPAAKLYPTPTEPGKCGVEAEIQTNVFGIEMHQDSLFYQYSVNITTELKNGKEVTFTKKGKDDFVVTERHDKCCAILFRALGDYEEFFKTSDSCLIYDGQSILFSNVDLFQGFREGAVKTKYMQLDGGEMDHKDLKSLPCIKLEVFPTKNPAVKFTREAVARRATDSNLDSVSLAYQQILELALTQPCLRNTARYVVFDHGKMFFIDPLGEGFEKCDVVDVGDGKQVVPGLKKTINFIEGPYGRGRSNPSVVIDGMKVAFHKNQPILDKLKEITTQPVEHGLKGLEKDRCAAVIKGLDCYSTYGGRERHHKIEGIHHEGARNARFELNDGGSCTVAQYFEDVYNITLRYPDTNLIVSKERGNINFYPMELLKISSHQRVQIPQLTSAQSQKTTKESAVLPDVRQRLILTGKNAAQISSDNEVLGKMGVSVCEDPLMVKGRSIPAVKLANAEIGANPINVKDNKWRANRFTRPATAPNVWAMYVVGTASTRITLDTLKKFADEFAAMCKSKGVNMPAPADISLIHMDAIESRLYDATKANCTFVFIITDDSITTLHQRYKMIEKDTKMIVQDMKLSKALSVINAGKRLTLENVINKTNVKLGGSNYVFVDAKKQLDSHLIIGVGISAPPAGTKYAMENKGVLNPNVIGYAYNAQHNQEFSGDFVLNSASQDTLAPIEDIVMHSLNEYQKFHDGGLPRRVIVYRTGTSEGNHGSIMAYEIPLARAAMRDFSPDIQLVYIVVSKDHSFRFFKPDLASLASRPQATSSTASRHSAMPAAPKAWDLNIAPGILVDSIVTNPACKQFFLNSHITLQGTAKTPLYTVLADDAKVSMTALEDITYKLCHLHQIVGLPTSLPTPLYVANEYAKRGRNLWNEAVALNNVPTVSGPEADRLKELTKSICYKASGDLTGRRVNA
The test can be described thus: co-IP.

These are yes or no findings as the source states them, for the method shown. Binding seen in cells or lysates may run through a third protein. Some results given as binding are weak or reduced against the parent protein; the word gives no strength. Sequences can lack the tags named with a protein.

As to HA∷ZNFX-1 (from UniProt E9P860 1-2443), the binding entry was “binds”.

B1: HA∷HRDE-1 (protein, UniProt Q09249 1-1032)
chain: MADLLDKIMGSSSSNRIPKRDNRMNQDKDEPTSKRSAPMFSTPKSTTPIGRDSFATMDTMNVQMNMFPVDIKDMPHKIQRFQVDVIVCSSNGKQINANLGVLAAKGDVNSHNRRLAQYYIMRTVHDKLLVKFSGKSHHFLAYDCAATLYLPEGVYTGDDQEEVTLTIDDFPKEEWKFVSKLSRRKDDSYLVVLKPAGFVYTQGEVAQEEANRMELTRIIEIVTSQKLNNEDYLQFGNATFPRLSPPHSEPDAISEIRSGFAKVSRLSQNGGGKAFMTVDTKISPFYKDTSVIKFSSNKLSEMKGGGGGRGGYGRSDSRDSRGGYRGGRSDSRDFRGVYGNRGGNDRYRDESRGRRDMYDSRRDSGSSNGADYSPSDAAELEHAFGERGNTKRCIEEALKGLDVECTHLKGNLIRVSSIAENNAENTSFMMKDDKGEREVTVAEYFLLQYNIKLKYPRLPLVVSKRFKHESFFPMELLRIAPGQRIKVNKMSPTVQSAMTGRNASMPQHHVKLVQDILRDNLKLEQNKYMDAFGIKLMSTEPIQMTAKLLPPAQIKFKGQTYMPDMSRPAFRTQDKFVEPARIRKIGIVVFDNCIQMRQAEDFCDKLSNFCRDNGITVEKDSRDWSIRELNSSDSVAIQNLMKKWLDDRVDILVGIAREKKPDVHDILKYFEESIGLQTIQLCQQTVDKMMGGQGGRQTIDNVMRKFNLKCGGTNFFVEIPNAVRGKAVCSNNETLRKKLLEHVQFIGFEISHGASRTLFDRSRSQMDGEPSVVGVSYSLTNSTQLGGFTYLQTQKEYKLQKLDEFFPKCVRSYKEHSKTLPTRIVIYRVGAGEGNFNRVKEEVEEMRRTFDKIQPGYRPHLVVIIAQRASHARVFPSCISGNRATDQNIPSGTCVENVLTSYGYDEFILSSQTPLIGTVRPCKYTILVNDAKWSKNELMHLTYFRAFGHQVSYQPPSVPDVLYAAENLAKRGRNNYKIHQRYVNLQAVENRIIKDHSELINEDMREELAAAIVDEMSVAMNGMTIPKRNFWA
On to B1, for which the binding result was “no binding”.
